# The other results are listed elsewhere or left out.
# Protein sequences, listed by entry. Tags and fused reporters are not part of them. Lines headed by an entry give the natural chain unless they say otherwise; changes in a name come on top.
# UniProt P50416: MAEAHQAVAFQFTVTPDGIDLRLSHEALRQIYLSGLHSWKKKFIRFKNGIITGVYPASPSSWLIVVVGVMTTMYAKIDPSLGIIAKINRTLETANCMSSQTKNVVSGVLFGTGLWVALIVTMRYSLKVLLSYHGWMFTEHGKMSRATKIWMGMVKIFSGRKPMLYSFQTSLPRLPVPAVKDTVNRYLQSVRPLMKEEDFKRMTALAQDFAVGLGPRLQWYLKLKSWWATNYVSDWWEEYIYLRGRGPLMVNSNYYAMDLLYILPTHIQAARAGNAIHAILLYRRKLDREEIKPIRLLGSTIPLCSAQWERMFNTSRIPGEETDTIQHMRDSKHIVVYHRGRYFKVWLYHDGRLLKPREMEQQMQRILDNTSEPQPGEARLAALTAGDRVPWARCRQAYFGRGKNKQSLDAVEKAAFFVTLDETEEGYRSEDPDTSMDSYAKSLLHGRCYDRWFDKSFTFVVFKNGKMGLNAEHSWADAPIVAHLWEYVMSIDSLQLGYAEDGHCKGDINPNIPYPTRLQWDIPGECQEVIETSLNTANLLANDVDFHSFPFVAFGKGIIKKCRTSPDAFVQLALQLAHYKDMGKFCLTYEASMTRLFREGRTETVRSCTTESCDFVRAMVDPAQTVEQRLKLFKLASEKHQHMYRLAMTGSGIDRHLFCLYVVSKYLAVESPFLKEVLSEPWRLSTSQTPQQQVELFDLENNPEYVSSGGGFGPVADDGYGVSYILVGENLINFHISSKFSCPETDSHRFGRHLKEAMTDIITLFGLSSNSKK
# UniProt Q7KZN9: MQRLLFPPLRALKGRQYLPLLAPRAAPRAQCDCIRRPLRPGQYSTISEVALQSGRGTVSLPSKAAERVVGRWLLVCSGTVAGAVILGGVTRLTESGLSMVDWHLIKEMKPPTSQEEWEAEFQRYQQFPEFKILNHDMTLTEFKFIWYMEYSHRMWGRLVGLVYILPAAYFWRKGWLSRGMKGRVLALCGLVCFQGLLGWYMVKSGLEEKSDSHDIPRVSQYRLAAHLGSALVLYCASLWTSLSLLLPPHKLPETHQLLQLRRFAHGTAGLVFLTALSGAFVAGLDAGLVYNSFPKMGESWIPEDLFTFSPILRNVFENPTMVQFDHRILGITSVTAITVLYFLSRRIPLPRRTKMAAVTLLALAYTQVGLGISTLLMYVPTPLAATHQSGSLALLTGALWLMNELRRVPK
# UniProt Q8N129: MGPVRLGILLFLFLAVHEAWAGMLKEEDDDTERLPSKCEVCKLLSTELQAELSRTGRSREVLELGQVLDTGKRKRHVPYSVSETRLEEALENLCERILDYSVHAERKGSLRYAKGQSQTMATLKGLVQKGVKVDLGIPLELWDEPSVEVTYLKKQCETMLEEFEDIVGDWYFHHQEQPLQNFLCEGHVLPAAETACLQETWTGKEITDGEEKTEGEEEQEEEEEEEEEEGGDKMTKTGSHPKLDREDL
# UniProt P61923: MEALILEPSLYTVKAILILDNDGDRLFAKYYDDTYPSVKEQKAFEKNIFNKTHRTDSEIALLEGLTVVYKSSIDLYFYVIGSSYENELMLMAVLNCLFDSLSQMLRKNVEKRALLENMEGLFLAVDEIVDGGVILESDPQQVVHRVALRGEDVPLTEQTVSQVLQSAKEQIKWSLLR
# UniProt P31146: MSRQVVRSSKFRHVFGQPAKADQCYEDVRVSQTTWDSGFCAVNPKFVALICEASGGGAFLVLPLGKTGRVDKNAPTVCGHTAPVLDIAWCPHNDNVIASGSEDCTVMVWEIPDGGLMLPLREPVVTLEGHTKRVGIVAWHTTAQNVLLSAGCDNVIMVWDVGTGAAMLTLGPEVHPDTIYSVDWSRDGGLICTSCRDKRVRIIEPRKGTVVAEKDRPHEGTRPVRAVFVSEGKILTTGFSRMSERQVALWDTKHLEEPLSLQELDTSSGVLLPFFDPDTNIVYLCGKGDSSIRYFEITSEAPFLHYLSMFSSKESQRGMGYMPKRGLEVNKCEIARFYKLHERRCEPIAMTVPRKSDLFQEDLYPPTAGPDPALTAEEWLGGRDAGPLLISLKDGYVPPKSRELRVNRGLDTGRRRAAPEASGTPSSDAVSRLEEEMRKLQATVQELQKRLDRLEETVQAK
# UniProt Q9Y2V7: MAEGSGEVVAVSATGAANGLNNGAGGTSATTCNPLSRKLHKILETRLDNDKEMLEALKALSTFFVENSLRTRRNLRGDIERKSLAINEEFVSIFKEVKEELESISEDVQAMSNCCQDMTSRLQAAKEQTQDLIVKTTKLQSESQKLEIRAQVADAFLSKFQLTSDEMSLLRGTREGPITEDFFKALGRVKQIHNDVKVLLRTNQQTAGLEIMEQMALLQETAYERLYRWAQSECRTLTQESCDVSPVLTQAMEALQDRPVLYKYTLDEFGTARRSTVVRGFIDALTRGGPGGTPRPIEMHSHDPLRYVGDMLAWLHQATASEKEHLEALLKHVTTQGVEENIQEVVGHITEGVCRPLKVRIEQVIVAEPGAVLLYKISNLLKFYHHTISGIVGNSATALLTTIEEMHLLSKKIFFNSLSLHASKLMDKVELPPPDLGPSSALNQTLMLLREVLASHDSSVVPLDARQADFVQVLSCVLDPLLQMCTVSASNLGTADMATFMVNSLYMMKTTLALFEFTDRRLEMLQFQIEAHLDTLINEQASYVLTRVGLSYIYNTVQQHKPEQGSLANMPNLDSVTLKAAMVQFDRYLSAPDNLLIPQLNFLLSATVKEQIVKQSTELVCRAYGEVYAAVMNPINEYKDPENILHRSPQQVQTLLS
# UniProt Q5HYK3: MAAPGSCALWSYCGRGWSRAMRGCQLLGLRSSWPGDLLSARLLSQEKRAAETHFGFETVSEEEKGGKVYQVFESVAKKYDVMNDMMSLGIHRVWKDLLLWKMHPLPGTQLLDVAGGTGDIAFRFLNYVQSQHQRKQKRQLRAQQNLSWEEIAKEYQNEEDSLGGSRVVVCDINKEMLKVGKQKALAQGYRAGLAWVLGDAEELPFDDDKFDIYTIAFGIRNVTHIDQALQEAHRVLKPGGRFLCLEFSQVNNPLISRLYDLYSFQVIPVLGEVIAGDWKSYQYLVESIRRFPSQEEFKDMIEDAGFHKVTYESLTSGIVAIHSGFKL
# UniProt P36551: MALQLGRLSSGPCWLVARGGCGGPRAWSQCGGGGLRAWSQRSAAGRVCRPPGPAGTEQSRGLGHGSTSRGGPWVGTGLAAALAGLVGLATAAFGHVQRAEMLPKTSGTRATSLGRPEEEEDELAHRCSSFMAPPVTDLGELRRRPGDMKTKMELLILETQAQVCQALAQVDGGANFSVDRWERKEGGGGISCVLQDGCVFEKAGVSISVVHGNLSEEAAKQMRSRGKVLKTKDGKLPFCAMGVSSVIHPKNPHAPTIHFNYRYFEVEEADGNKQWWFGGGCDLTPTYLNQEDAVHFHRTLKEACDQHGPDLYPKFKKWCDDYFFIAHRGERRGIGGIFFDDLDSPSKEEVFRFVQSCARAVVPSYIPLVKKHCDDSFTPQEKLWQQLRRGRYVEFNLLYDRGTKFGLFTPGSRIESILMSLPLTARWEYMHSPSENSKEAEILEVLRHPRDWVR
# UniProt P83436: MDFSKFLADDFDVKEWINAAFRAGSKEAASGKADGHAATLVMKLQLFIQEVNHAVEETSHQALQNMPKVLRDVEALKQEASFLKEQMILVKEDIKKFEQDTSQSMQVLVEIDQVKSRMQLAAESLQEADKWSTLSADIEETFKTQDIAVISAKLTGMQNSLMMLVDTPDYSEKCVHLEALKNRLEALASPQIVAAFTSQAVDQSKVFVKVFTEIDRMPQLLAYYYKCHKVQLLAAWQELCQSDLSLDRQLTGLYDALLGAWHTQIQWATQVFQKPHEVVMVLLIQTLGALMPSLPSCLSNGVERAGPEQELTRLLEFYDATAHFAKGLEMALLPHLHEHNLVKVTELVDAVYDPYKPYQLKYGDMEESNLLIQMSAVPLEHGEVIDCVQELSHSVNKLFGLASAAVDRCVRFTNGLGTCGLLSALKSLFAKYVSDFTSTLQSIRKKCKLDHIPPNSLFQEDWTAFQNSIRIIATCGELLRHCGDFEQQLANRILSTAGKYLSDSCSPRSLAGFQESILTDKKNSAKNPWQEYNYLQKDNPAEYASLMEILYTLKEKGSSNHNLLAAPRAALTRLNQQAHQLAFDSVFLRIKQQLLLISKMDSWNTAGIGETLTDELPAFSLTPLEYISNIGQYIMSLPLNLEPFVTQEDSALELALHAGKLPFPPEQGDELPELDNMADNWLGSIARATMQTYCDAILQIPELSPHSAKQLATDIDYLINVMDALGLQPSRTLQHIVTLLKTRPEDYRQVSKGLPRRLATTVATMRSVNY
# UniProt Q9BT09: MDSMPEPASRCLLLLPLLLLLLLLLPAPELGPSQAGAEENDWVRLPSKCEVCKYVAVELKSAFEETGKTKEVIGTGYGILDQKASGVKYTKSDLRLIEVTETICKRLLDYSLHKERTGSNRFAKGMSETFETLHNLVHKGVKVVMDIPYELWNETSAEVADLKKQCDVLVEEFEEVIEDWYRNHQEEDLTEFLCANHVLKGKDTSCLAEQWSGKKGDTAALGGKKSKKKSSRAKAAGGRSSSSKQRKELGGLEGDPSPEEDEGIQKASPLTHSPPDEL
# UniProt Q9GZY4: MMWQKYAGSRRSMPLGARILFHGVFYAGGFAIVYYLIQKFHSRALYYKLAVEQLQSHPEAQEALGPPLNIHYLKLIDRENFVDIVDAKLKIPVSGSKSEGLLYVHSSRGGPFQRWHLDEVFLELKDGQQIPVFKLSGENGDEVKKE
# UniProt P61201: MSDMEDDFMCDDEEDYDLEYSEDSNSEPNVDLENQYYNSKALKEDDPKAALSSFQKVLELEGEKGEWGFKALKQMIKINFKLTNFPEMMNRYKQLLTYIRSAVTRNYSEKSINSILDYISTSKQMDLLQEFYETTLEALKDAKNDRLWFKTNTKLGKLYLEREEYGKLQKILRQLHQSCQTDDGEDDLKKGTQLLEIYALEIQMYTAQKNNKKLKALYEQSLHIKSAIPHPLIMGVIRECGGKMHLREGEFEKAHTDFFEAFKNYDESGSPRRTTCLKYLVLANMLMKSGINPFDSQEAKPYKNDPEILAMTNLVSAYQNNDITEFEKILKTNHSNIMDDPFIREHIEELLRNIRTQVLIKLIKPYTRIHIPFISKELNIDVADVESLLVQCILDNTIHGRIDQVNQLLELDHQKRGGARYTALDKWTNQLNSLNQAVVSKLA
# UniProt Q49B96: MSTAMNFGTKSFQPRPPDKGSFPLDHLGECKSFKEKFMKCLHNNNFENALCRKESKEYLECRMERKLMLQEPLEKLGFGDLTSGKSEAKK
# UniProt Q5RI15: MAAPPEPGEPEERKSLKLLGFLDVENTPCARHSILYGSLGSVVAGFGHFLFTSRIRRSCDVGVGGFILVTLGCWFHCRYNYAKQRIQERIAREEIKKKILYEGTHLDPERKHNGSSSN
# UniProt P53618: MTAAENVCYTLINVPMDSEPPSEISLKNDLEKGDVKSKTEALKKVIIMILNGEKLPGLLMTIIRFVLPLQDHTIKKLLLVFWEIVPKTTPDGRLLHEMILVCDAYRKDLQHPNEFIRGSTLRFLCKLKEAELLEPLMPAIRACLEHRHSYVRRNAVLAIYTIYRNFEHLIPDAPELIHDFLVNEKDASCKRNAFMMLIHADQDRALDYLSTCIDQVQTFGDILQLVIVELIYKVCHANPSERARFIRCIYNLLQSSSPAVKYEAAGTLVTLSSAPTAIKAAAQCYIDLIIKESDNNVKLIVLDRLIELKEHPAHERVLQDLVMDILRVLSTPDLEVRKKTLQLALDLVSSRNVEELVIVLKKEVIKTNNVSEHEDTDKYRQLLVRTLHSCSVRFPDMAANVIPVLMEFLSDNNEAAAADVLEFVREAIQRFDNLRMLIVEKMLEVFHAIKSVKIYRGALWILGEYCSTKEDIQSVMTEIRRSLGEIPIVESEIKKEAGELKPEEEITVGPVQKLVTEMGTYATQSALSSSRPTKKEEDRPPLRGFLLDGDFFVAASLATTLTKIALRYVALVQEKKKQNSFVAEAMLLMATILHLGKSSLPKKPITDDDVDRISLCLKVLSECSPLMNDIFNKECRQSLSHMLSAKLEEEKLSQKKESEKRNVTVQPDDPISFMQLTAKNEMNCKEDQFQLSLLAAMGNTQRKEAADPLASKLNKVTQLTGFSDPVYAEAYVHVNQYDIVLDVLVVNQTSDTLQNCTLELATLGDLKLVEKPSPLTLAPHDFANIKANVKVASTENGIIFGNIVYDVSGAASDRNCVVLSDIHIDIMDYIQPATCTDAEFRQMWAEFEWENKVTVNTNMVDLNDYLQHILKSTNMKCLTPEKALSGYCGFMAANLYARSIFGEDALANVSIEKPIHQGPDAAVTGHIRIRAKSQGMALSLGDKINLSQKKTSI
# UniProt Q9Y6N1: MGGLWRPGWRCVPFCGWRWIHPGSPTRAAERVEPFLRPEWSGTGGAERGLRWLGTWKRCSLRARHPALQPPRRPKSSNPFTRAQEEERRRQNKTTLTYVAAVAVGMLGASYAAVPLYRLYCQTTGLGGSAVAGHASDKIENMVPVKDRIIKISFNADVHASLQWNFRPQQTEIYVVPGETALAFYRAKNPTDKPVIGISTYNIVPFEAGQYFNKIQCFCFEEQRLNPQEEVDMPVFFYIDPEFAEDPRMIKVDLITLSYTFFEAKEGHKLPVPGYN
# Key:
# Experiment in all cases: log2 fold change, soluble protein after heating vs DMSO (PISA); higher = thermal stabilisation; K562 lysate, 10 uM; active = over 0.2 and 3.5 SD of the protein, either way, in both replicates (recomputed)
# vemurafenib = compound: CCCS(=O)(=O)Nc1ccc(F)c(C(=O)c2c[nH]c3ncc(-c4ccc(Cl)cc4)cc23)c1F [vemurafenib]
# Outline: (§1)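 Following dounce homogenisation of K562 pellets in PBS pH 7.4 with 1 mM MgCl2, crude extract at 1 mg/mL protein was incubated for 30 min with 10 μM compound. Aliquots were then heated for 3 min over 48°C-58°C and pooled, NP-40 was added to 0.5% at 4°C, and soluble protein was recovered as the supernatant at 21,000xg for 90 min. Channel-sum-equalised TMTpro 16plex LC-MS/MS quantified this protein. Each value, from duplicates, is a log-two fold change in thermal stability relative to solvent controls.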
# [1] = compound: CCCS(=O)(=O)Nc1ccc(F)c(C(=O)c2c[nH]c3ncc(Cl)cc23)c1F
# Outline: as §1
# barasertib = compound: CCN(CCCOc1ccc2c(Nc3cc(CC(=O)Nc4cccc(F)c4)[nH]n3)ncnc2c1)CCOP(=O)(O)O [barasertib]
# Outline: as §1
# [2] = compound: CC[C@@H]1C(=O)N(C)c2cnc(Nc3ccc(C(=O)NC4CCN(C)CC4)cc3OC)nc2N1C1CCCC1
# Outline: as §1
# volasertib = compound: CC[C@@H]1C(=O)N(C)c2cnc(Nc3ccc(C(=O)N[C@H]4CC[C@H](N5CCN(CC6CC6)CC5)CC4)cc3OC)nc2N1C(C)C [volasertib]
# Outline: as §1
# [3] = compound: CCn1c(C(=O)N(C2CC2)C2CC2)cc2c3c(ncn3C)c(Nc3cc(C)n(C)n3)nc21
# Outline: as §1
# [4] = compound: CCn1cc(-c2ccnc3[nH]c(-c4cccc(CN(C)C)c4)cc23)c(-c2ccc(NC(=O)N(C)C)cc2)n1
# Outline: as §1
# [5] = compound: CN1CCC(CNc2ccc3ncc(-c4cccc(OC(F)(F)F)c4)n3n2)CC1
# Outline: as §1
# saracatinib = compound: CN1CCN(CCOc2cc(OC3CCOCC3)c3c(Nc4c(Cl)ccc5c4OCO5)ncnc3c2)CC1 [saracatinib]
# Outline: as §1
# sotrastaurin = compound: CN1CCN(c2nc(C3=C(c4c[nH]c5ccccc45)C(=O)NC3=O)c3ccccc3n2)CC1 [sotrastaurin]
# Outline: as §1
Target,log2 fold change (vemurafenib),log2 fold change [1],log2 fold change (barasertib),log2 fold change [2],log2 fold change (volasertib),log2 fold change [3],log2 fold change [4],log2 fold change [5],log2 fold change (saracatinib),log2 fold change (sotrastaurin)
COG2 (UniProt Q14746),inactive: 0.023,inactive: 0.012,inactive: 0.077,inactive: -0.052,inactive: -0.088,inactive: 0.106,inactive: 0.032,inactive: -0.093,inactive: 0.002,inactive: 0.037
CPT1A (UniProt P50416),inactive: 0.024,inactive: 0.035,inactive: 0.048,inactive: 0.038,inactive: 0.032,inactive: -0.018,inactive: 0,inactive: -0.137,inactive: -0.004,inactive: -0.014
COX15 (UniProt Q7KZN9),inactive: 0.015,inactive: 0.012,inactive: 0.007,inactive: 0.025,inactive: 0.073,inactive: -0.064,inactive: -0.139,inactive: 0.074,inactive: -0.007,inactive: 0.008
COMMD9 (UniProt Q9P000),inactive: -0.02,inactive: 0.011,inactive: 0.069,inactive: 0.104,inactive: 0.083,inactive: -0.063,inactive: 0.048,inactive: -0.046,inactive: -0.014,inactive: -0.075
CNN1 (UniProt P51911),inactive: -0.007,inactive: -0.082,inactive: -0.004,inactive: 0.175,inactive: -0.085,inactive: -0.101,inactive: 0.034,inactive: 0.025,inactive: 0.009,inactive: -0.003
CNPY4 (UniProt Q8N129),inactive: 0.018,inactive: -0.023,inactive: -0.011,inactive: 0.109,inactive: 0.023,inactive: -0.059,inactive: -0.081,inactive: 0.017,inactive: 0.071,inactive: 0.054
COMMD3 (UniProt Q9UBI1),inactive: 0.064,inactive: 0.005,inactive: 0.105,inactive: -0.017,inactive: -0.031,inactive: 0.007,inactive: -0.062,inactive: -0.129,inactive: 0.005,inactive: -0.02
COPZ1 isoform 4 (UniProt P61923),inactive: -0.054,inactive: -0.004,inactive: 0.111,inactive: 0.022,inactive: 0.019,inactive: 0.004,inactive: -0.015,inactive: -0.187,inactive: 0.018,inactive: 0.01
COG1 (UniProt Q8WTW3),inactive: -0.159,inactive: 0.023,inactive: 0.008,inactive: -0.006,inactive: -0.067,inactive: -0.032,inactive: -0.114,inactive: -0.076,inactive: 0.055,inactive: 0.047
CNST (UniProt Q6PJW8),inactive: 0.002,inactive: -0.026,inactive: -0.07,inactive: 0.079,inactive: -0.008,inactive: 0.02,inactive: -0.066,inactive: 0.019,inactive: 0.033,inactive: 0.039
COL6A5 (UniProt A8TX70),inactive: 0.073,inactive: 0.041,inactive: 0.09,inactive: 0.078,inactive: -0.044,inactive: -0.055,active: -0.834,inactive: 0.374,inactive: -0.048,inactive: -0.03
CORO1A (UniProt P31146),inactive: -0.021,inactive: -0.001,inactive: 0.013,inactive: 0.025,inactive: -0.035,inactive: 0.11,inactive: -0.113,inactive: 0.021,inactive: -0.169,inactive: -0.007
CPSF2 (UniProt Q9P2I0),inactive: -0.009,inactive: 0.003,inactive: 0.018,inactive: -0.018,inactive: -0.042,inactive: 0.04,inactive: -0.017,inactive: -0.031,inactive: -0.018,inactive: 0.028
COMMD4 (UniProt Q9H0A8),inactive: 0.021,inactive: 0.005,inactive: -0.027,inactive: -0.052,inactive: 0.011,inactive: 0.07,inactive: -0.047,inactive: 0.028,inactive: 0.035,inactive: 0.012
COG8 (UniProt Q96MW5),inactive: 0.037,inactive: -0.049,inactive: -0.014,inactive: -0.063,inactive: -0.083,inactive: 0.09,inactive: -0.089,inactive: -0.163,inactive: -0.017,inactive: 0.041
COG6 (UniProt Q9Y2V7),inactive: 0.062,inactive: 0.013,inactive: 0.072,inactive: -0.004,inactive: -0.046,inactive: 0.015,inactive: -0.116,inactive: 0.017,inactive: 0.073,inactive: -0.017
COQ5 (UniProt Q5HYK3),inactive: 0.091,inactive: 0.001,inactive: 0.013,inactive: -0.03,inactive: -0.036,inactive: 0.031,inactive: 0.03,inactive: 0.001,inactive: 0.063,inactive: 0.049
CPOX (UniProt P36551),inactive: 0.01,inactive: 0.056,inactive: -0.056,inactive: 0.055,inactive: 0.006,inactive: -0.039,inactive: 0.062,inactive: 0.035,inactive: -0.011,inactive: 0.036
COG7 (UniProt P83436),inactive: 0.003,inactive: 0.018,inactive: 0.017,inactive: -0.054,inactive: -0.076,inactive: -0.003,inactive: -0.209,inactive: -0.019,inactive: 0.05,inactive: 0.039
COLGALT1 (UniProt Q8NBJ5),inactive: -0.01,inactive: 0.013,inactive: 0.02,inactive: -0.025,inactive: 0.004,inactive: 0.003,inactive: -0.038,inactive: 0.043,inactive: -0.006,inactive: 0.028
COA7 (UniProt Q96BR5),inactive: -0.019,inactive: 0.005,inactive: 0.056,inactive: 0.046,inactive: 0.029,inactive: 0.032,inactive: -0.048,inactive: 0.044,inactive: -0.04,inactive: -0.006
CNPY3 (UniProt Q9BT09),inactive: -0.001,inactive: -0.006,inactive: -0.006,inactive: 0.04,inactive: 0.022,inactive: 0.025,inactive: 0.035,inactive: -0.061,inactive: -0.023,inactive: 0.032
COA1 (UniProt Q9GZY4),inactive: 0.033,inactive: 0.016,inactive: 0.022,inactive: 0.025,inactive: -0.001,inactive: -0.04,inactive: -0.089,inactive: -0.105,inactive: -0.04,inactive: 0.051
COPS2 isoform 2 (UniProt P61201),inactive: -0.028,inactive: -0.016,inactive: 0.009,inactive: -0.011,inactive: 0.009,inactive: 0.007,inactive: 0.026,inactive: -0.012,inactive: 0.007,inactive: -0.014
COX19 (UniProt Q49B96),inactive: 0.01,inactive: -0.011,inactive: 0.127,inactive: 0.035,inactive: 0.019,inactive: -0.037,inactive: 0.015,inactive: 0.011,inactive: 0.025,inactive: 0.02
COX20 isoform 2 (UniProt Q5RI15),inactive: 0.011,inactive: -0.011,inactive: -0.329,inactive: 0.144,inactive: 0.021,inactive: -0.015,active: 0.623,inactive: -0.232,inactive: -0.015,inactive: 0.001
COPG2 (UniProt Q9UBF2),inactive: 0.029,inactive: 0.012,inactive: 0.009,inactive: -0.019,inactive: 0,inactive: -0.018,inactive: 0.029,inactive: -0.013,inactive: 0.008,inactive: -0.007
COPB1 (UniProt P53618),inactive: 0.008,inactive: 0.023,inactive: -0.018,inactive: -0.038,inactive: 0.005,inactive: -0.025,inactive: -0.11,inactive: 0.062,inactive: -0.001,inactive: -0.004
COX11 (UniProt Q9Y6N1),inactive: 0.053,inactive: -0.006,inactive: -0.051,inactive: 0.027,inactive: 0.03,inactive: -0.043,inactive: 0.172,inactive: 0.042,inactive: 0.014,inactive: -0.03
CNOT4 isoform 9 (UniProt O95628),inactive: 0.027,inactive: 0.014,inactive: -0.195,inactive: 0.028,inactive: -0.03,inactive: 0.015,active: -1.23,inactive: 0.22,inactive: 0.1,inactive: 0.075

# A different layout for some results above:
Target | log2 fold change (vemurafenib) | log2 fold change [1] | log2 fold change (barasertib) | log2 fold change [2] | log2 fold change (volasertib) | log2 fold change [3] | log2 fold change [4] | log2 fold change [5] | log2 fold change (saracatinib) | log2 fold change (sotrastaurin)
CORO1A (UniProt P31146) | inactive: -0.021 | inactive: -0.001 | inactive: 0.013 | inactive: 0.025 | inactive: -0.035 | inactive: 0.11 | inactive: -0.113 | inactive: 0.021 | inactive: -0.169 | inactive: -0.007
COG8 (UniProt Q96MW5) | inactive: 0.037 | inactive: -0.049 | inactive: -0.014 | inactive: -0.063 | inactive: -0.083 | inactive: 0.09 | inactive: -0.089 | inactive: -0.163 | inactive: -0.017 | inactive: 0.041
